# Experimental data: publication PMC7862700
# Only a part is listed here, and it is no random draw. At the low end of the ranking the order means little.
# Molecular target: T1, SPIC (UniProt Q8N5J4)
# T1 sequence: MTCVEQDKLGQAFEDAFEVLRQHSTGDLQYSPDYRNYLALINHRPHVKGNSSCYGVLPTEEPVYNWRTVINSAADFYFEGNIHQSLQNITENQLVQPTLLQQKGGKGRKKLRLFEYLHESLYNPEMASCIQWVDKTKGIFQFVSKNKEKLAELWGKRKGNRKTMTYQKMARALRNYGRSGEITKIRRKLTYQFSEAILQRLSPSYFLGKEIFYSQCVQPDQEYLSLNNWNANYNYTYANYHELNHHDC
# Test: DAPPL (digital affinity profiling via proximity ligation, sequencing)
# Conditions: 10 mM Tris-HCl pH 7.5, 50 mM NaCl, 1 mM DTT, 4% glycerol, room temperature, 30 min; GST-TFs on glutathione beads, 16-mer random dsDNA library, 0.1% …; high values mean tight binding; double strand, one strand shown; scale: fold enrichment (6-mer frequency, TF over GST control)
row,Sequence,binding signal
1,CACGGT,0.908
2,GACGGA,0.458
3,CCAGCG,0.668
4,GGTCGG,0.28
5,CCCAGC,0.94
6,CGTGGC,0.915
7,GCCGGG,0.42
8,TCGCCA,0.957
9,TCGGTT,0.98
10,TGCGTG,0.568
11,GCGCGG,0.705
12,CGGTAG,0.79
13,ACGCAG,0.799
14,TGTAGT,0.915
15,CGGTAA,0.952
16,GCGGGC,0.8
17,ACAGTC,0.372
18,GGGGTG,0.568
19,GGGCGG,0.466
20,GGTAGC,0.798

# Molecular target: T2, ETS2 (UniProt P15036)
# T2 sequence: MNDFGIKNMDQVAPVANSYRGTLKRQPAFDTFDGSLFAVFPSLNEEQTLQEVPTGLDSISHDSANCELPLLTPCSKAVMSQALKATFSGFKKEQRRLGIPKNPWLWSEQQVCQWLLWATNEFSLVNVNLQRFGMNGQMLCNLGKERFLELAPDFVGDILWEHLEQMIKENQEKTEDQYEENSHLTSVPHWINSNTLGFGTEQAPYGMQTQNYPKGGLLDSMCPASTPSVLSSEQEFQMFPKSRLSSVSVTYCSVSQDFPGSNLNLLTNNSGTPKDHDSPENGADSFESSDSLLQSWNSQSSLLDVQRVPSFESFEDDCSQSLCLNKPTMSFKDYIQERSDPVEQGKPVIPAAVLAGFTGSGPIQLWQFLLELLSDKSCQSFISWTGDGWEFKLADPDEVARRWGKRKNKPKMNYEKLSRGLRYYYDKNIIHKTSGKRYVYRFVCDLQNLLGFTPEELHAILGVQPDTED
# Test: as above
# Conditions: 10 mM Tris-HCl pH 7.5, 50 mM NaCl, 1 mM DTT, 4% glycerol, room temperature, 30 min; GST-TFs on glutathione beads, 16-mer random dsDNA library, 0.1% …; high values mean tight binding; double strand, one strand shown; scale: fold enrichment (6-mer frequency, TF over GST control)
row,Sequence,binding signal
1,GGCGGA,0.374
2,AGGATC,0.876
3,GTGGGT,0.537
4,GGGATA,0.773
5,GGTTGA,0.762
6,GAGTCG,0.231
7,ACGTAG,0.796
8,CAGTGT,0.712
9,CGCATC,0.893
10,ACCAGT,0.471
11,GTAGTC,0.7
12,TACAGT,0.878
13,CAGTCT,0.738
14,AGACGC,0.696
15,ATCCAG,0.839
16,AGATTG,0.801
17,ACCGAG,0.777
18,GGCGCT,0.757
19,CGGGAC,0.53
20,CACGGT,0.988

row,Sequence,binding signal
1,GACGGA,0.486
2,CCAGCG,0.678
3,GGTCGG,0.283
4,CCCAGC,0.914
5,CGTGGC,0.969
6,GCCGGG,0.389
7,TCGCCA,0.996
8,TCGGTT,0.819
9,TGCGTG,0.614
10,GCGCGG,0.822
11,CGGTAG,0.703
12,ACGCAG,0.826
13,TGTAGT,0.964
14,CGGTAA,0.917
15,GCGGGC,0.775
16,ACAGTC,0.422
17,GGGGTG,0.689
18,GGGCGG,0.44
19,GGTAGC,0.764

# Molecular target: T3, ETV3 (UniProt P41162-2)
# T3 sequence: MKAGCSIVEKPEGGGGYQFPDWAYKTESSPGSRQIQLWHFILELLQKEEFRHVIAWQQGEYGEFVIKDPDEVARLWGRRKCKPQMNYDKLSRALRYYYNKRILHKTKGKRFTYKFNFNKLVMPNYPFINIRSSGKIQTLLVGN
# Test: as above
# Conditions: 10 mM Tris-HCl pH 7.5, 50 mM NaCl, 1 mM DTT, 4% glycerol, room temperature, 30 min; GST-TFs on glutathione beads, 16-mer random dsDNA library, 0.1% …; high values mean tight binding; double strand, one strand shown; scale: fold enrichment (6-mer frequency, TF over GST control)
row,Sequence,binding signal
1,GGCGGA,0.374
2,AGGATC,0.808
3,GTGGGT,0.434
4,GGGATA,0.802
5,GGTTGA,0.753
6,GAGTCG,0.221
7,ACGTAG,0.808
8,CAGTGT,0.618
9,CGCATC,0.892
10,ACCAGT,0.468
11,GTAGTC,0.642
12,TACAGT,0.86
13,CAGTCT,0.696
14,AGACGC,0.704
15,ATCCAG,0.894
16,AGATTG,0.769
17,ACCGAG,0.691
18,GGCGCT,0.772
19,CGGGAC,0.547
20,CACGGT,0.886

row,Sequence,binding signal
1,GACGGA,0.542
2,CCAGCG,0.682
3,GGTCGG,0.259
4,CCCAGC,0.866
5,CGTGGC,0.913
6,GCCGGG,0.404
7,TCGCCA,0.91
8,TCGGTT,0.809
9,TGCGTG,0.627
10,GCGCGG,0.798
11,CGGTAG,0.774
12,ACGCAG,0.739
13,TGTAGT,0.945
14,CGGTAA,0.971
15,GCGGGC,0.789
16,ACAGTC,0.425
17,GGGGTG,0.697
18,GGGCGG,0.423
19,GGTAGC,0.848
